Assay results published in article PMC4268710.
Results are given in words; binding and its absence hold for the method and conditions named. For some of these results: Binding seen in cells or lysates may run through a third protein. Some entries that bind do so weakly or less than the wild type. Tags and fused reporters may be left off the sequences shown.

Assays:
[1] = target: T1, Egd2 (alpha-subunit of NAC) fused to a DHFR fragment (S. cerevisiae) (UniProt P38879); assay: split reporter; split DHFR protein complementation assay in diploid yeast; Egd1 or Egd2 as bait with F[1,2] or F[3], library of the reciprocal mating type as prey; growth on methotrexate, glucose or galactose, 30 °C; colony area >150 as threshold; re-confirmed by mating single strains
T1 sequence: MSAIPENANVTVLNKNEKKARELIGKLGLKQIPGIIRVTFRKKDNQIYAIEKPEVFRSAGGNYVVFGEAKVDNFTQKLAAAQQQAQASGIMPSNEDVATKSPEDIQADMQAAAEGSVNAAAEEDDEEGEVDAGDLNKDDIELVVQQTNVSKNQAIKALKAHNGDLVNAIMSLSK

[2] = target: T2, Egd1 (beta-subunit of NAC) fused to a DHFR fragment (S. cerevisiae) (UniProt Q02642); assay: as above
T2 sequence: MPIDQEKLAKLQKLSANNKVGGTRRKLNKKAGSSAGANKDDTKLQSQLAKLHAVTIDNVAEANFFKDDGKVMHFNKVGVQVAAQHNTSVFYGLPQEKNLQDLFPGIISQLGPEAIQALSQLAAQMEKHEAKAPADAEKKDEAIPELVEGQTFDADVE

[3] = target: T3, His6-EGD2 of the yeast NAC complex purified from bacteria (yeast) (UniProt P38879); assay: SEC; EGD2 and EGD1 co-expressed in E. coli, Ni column by the His6 tag of EGD2, then Superdex 200 in 20 mM Tris pH 7, 50 mM NaCl, 5 mM MgCl2; both purified
T3 sequence: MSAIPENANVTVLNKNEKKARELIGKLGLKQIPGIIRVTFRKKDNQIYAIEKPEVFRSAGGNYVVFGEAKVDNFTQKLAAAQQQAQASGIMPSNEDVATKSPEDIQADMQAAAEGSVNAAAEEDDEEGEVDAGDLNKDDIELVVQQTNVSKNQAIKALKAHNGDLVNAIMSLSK

[4] = target: T4, HA-tagged OM14 (S. cerevisiae) (UniProt P38325); assay: co-IP; lysate of yeast with HA-tagged OM14 (0.1% NP-40) loaded on an anti-HA sepharose column, eluted with 0.1 M acetic acid pH 3, western blot; strain with untagged OM14 as control
T4 sequence: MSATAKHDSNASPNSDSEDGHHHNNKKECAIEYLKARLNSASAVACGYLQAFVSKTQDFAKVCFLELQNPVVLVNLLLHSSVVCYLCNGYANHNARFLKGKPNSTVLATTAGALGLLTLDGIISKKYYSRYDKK

B1: OM14 fused to a DHFR fragment (prey of the DHFR PCA library) (protein, UniProt P38325 1-134)
chain: MSATAKHDSNASPNSDSEDGHHHNNKKECAIEYLKARLNSASAVACGYLQAFVSKTQDFAKVCFLELQNPVVLVNLLLHSSVVCYLCNGYANHNARFLKGKPNSTVLATTAGALGLLTLDGIISKKYYSRYDKK
B1 was tested, and the binding [1] was “binds” and the binding [2] was “binds”.

B2: EGD1 of the yeast NAC complex purified from bacteria (protein, UniProt Q02642 1-157)
chain: MPIDQEKLAKLQKLSANNKVGGTRRKLNKKAGSSAGANKDDTKLQSQLAKLHAVTIDNVAEANFFKDDGKVMHFNKVGVQVAAQHNTSVFYGLPQEKNLQDLFPGIISQLGPEAIQALSQLAAQMEKHEAKAPADAEKKDEAIPELVEGQTFDADVE
In the case of B2, the binding [3] is reported as “binds”.

B3: HXK1 (endogenous) (protein, UniProt P04806 1-485)
chain: MVHLGPKKPQARKGSMADVPKELMDEIHQLEDMFTVDSETLRKVVKHFIDELNKGLTKKGGNIPMIPGWVMEFPTGKESGNYLAIDLGGTNLRVVLVKLSGNHTFDTTQSKYKLPHDMRTTKHQEELWSFIADSLKDFMVEQELLNTKDTLPLGFTFSYPASQNKINEGILQRWTKGFDIPNVEGHDVVPLLQNEISKRELPIEIVALINDTVGTLIASYYTDPETKMGVIFGTGVNGAFYDVVSDIEKLEGKLADDIPSNSPMAINCEYGSFDNEHLVLPRTKYDVAVDEQSPRPGQQAFEKMTSGYYLGELLRLVLLELNEKGLMLKDQDLSKLKQPYIMDTSYPARIEDDPFENLEDTDDIFQKDFGVKTTLPERKLIRRLCELIGTRAARLAVCGIAAICQKRGYKTGHIAADGSVYNKYPGFKEAAAKGLRDIYGWTGDASKDPITIVPAEDGSGAGAAVIAALSEKRIAEGKSLGIIGA
With B3 the binding [4] was “no binding”.
